From patent publication US20110053991A1, “Treatment of Histone Deacetylase Mediated Disorders” (priority 2007, published 2011) come the findings set out here.

Common to all, as to experiment: MTT assay, cell number relative to vehicle
Type in all cases: cell-based

One test has as its system CEM. Conditions: Homo sapiens, CCRF-CEM, T Cell Lymphoblastic Leukemia, 48 hours.
In a further test the test system is Molt-3. As to conditions: Homo sapiens, Molt-3, T Cell Lymphoblastic Leukemia, 48 hours.
The subject of the next test is RS4; 11. As to conditions: Homo sapiens, 11 (MLL-AF4), Biphenotypic Leukemia with Lymphoblastic Features, 48 hours.
The subject of the next test is UOCB1. As to conditions: Homo sapiens, UoC-B1, UOCB1 (E2A-HLF), B Cell Lymphoblastic Leukemia, 48 hours.
Another test concerns Molm-13. Conditions: Homo sapiens, Molm-13 (MLL-AF9), Biphenotypic Leukemia with Myeloid Features, 48 hours.
The subject of a further test is THP-1. Conditions: Homo sapiens, THP-1 (MLL-AF9), Biphenotypic Leukemia with Myeloid Features, 48 hours.
Another test concerns Molm-14. Conditions: Homo sapiens, Molm-14 (MLL-AF9), Biphenotypic Leukemia with Myeloid Features, 48 hours.
The subject of a further test is NOMO-1. Conditions: Homo sapiens, NOMO-1 (MLL-AF9), Biphenotypic Leukemia with Myeloid Features, 48 hours.
A further test relates to KG1. As to conditions: Homo sapiens, KG-1, KG1, Myeloid Leukemia, 48 hours.
In another test the test system is SEM cells. Conditions: SEM (MLL-AF4), Biphenotypic Leukemia with Lymphoblastic Features, 48 hours.
The next test relates to MV4-11. Conditions: Homo sapiens, MV4-11 (MLL-AF4), Biphenotypic Leukemia with Myeloid Features, 48 hours.
The subject of another test is EOL-1. As to conditions: Homo sapiens, EOL1, EOL-1 (FIP1L1-PDGFRα), Myeloid Leukemia, 48 hours.
Another test relates to REH. As to conditions: Homo sapiens, REH (TEL-AML1), B Cell Lymphoblastic Leukemia, 48 hours. The method, then: Acute lymphocytic leukemia (ALL) cell lines (REH, CEM, RS411, SEM, and/or KOPN8) and acute myeloid leukemia (AML) cell lines (MV411, Molm13, Molm14, THP1, and/or NOMO1) were treated with vorinostat (SAHA), entinostat (SNDX-275), or vehicle only for 48 hours (FIGS. 1-3 and Table 1). Alternatively, an ALL cell line (REH) was treated with Trichostatin A (TSA), sodium phenyl butyrate (SPB), or vehicle only for 48 hours. MTT or BrdU were added for 4 hours. The relative number of viable cells, as indicated by MTT reduction, was determined (FIG. 1A and Table 1). The relative number of proliferating cells, as indicated by BrdU-incorporation, was measured using an ELISA assay (FIG. 1B). IC50 values were calculated using non-linear regression (Table 1). The percentages of apoptotic and dead cells were determined by flow cytometric analysis of cells stained with YO-PRO®-1 and propidium iodide (FIGS. 2 and 5A). DNA content was determined by flow cytometric analysis of propidium iodide stained cells. The fractions of cells with G1, S, and G2/M phase DNA contents were determined (FIGS. 3 and 5B).

The next test has as its system Nalm-6. As to conditions: Homo sapiens, Nalm-6 (PDGFRβ-TEL), B Cell Lymphoblastic Leukemia, 48 hours.
In a further test the test system is HL-60. Conditions: Homo sapiens, HL-60, Myeloid Leukemia, 48 hours.
The next test deals with KOPN-8. Conditions: Homo sapiens, KOPN-8 (MLL-ENL), Biphenotypic Leukemia with Lymphoblastic Features, 48 hours.
Another test deals with HSB-2. Conditions: HSB2, HSB-2 (LCK-TCRβ), T Cell Lymphoblastic Leukemia, 48 hours.
Another test relates to U937. As to conditions: Homo sapiens, U-937, U937, Myeloid Leukemia, 48 hours.
A further test has as its system Molt-4. Conditions: Homo sapiens, Molt-4, T Cell Lymphoblastic Leukemia, 48 hours.
For the next test, the system named is HEL. Conditions: Homo sapiens, Myeloid Leukemia, 48 hours.
For a further test, the system named is RCH-AcV. Conditions: RCH-AcV (E2A-PBX1), B Cell Lymphoblastic Leukemia, 48 hours.
Another test deals with HAL-01. As to conditions: Homo sapiens, HAL-01 (TCF3/E2A-HLF), B Cell Lymphoblastic Leukemia, 48 hours.

Consider `O=C(CCCCCCC(=O)Nc1ccccc1)NO` [vorinostat, N′-hydroxy-N-phenyl-octanediamide], for which the half-maximal inhibitory concentration (IC50) in the test with CEM worked out at 0.71 µM; in the test on Molt-3 it was 0.574 µM; with RS4; 11, 0.466 µM; in the test with UOCB1 it was 0.477 µM; in the test on Molm-13, 0.725 µM; in the test on THP-1, 2.52 µM. Besides, the IC50 in the test on Molm-14 was determined as 0.538 µM; in the test on NOMO-1, 1.64 µM; with KG1, 0.477 µM; in the test on SEM cells it was 0.41 µM; with MV4-11, 0.468 µM; with EOL-1, 0.377 µM. Moreover, the 50% inhibitory concentration (IC50) in the test with REH is 0.704 µM; in the test with Nalm-6 it was 0.643 µM; with HL-60, 1.21 µM; in the test on KOPN-8, 0.646 µM; in the test on HSB-2, 0.941 µM; in the test on U937, 0.723 µM. The IC50 in the test with Molt-4 came to 0.548 µM; in the test on HEL it was 0.625 µM; in the test on RCH-AcV, 0.529 µM; in the test with HAL-01, 0.486 µM.
